Assay results: patent US20150191445A1, “ACYL-HYDRAZONE AND OXADIAZOLE COMPOUNDS, PHARMACEUTICAL COMPOSITIONS CONTAINING THE SAME AND USES THEREOF” (Universidade Federal de Santa Catarina, priority 2011, published 2015)

Test system: HL-60 cells
Experiment: DNA microarray gene expression and GSEA analysis
Format: cell-based, human
Conditions: 125 nM, 6 h, FC>1.5, p<0.05
Method: The cells were incubated for 12 hours in fresh medium before the experiments. Two million cells from the leukemic cell line HL60, in triplicate, were treated with a 125 nM dose of compound 07 or with dimethylsulfoxide (DMSO) vehicle for 6 h, in DMEM supplemented with 10% fetal bovine serum. At the end of this period, the cells were recovered by brief centrifugation and lysed in a solution of guanidine of the RNAspin Mini RNA Isolation kit (GE).
Total RNA was extracted from cells using the RNAspin Mini RNA Isolation kit (GE) following the manufacturer's instructions. A total of 100 ng of RNA was used to prepare biotinylated complementary RNA probes (Bio-cRNA), by cDNA synthesis followed by amplification by in vitro transcription, using the GeneChip WT cDNA Synthesis and Amplification kit (Affymetrix) according to the recommendations of the manufacturer. […]
the results of the microarray hybridization were read in the Affymetrix Gene Chip Scanner 3000-7G. Data were analyzed in the Bioconductor platform. […] The list of differentially expressed genes were analyzed using the CMap (http://www.broad.mit.edu/cmap/) for identification of possible action mechanisms related to the action of known compounds (Lamb, J., Crawford E. D. The Connectivity Map: Using Gene-Expression Signatures to Connect Small Molecules, Genes and Disease Science 2006, 313, 1929-1935). […]

Compound: COc1cc(C(=O)NN=Cc2cccc3ccccc23)cc(OC)c1OC [Compound 07]
- transcription activation, number of genes: 353 genes
- transcription repression, number of genes: 102 genes
